Test results published in the supplement of paper PMC10994270.
Some of the results follow.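 How the source made its calls: active = probability of classifying as wild-type above 0.505; inactive = 0.505 or below.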 Repeats are few or missing, and single values can be far off.

What follows are molecules tested on SORL1-/- neural progenitor cells (hiPSC WTSIi004-B derived) (assay: probability of classification as wild-type phenotype (neural network, relative to DMSO-treated WT vs SORL1-/- controls) (fraction); higher = more similar to wild-type morphology (phenotypic rescue)). Settings: 100 nM; SORL1-/- sub-clone: WB8; 24 h.

probability, active:
C/C(=C\c1csc(C)n1)[C@@H]1C[C@@H]2O[C@]2(C)CCC[C@H](C)[C@H](O)[C@@H](C)C(=O)C(C)(C)[C@@H](O)CC(=O)N1 [Ixabepilone] 0.64
CCOc1cc2ncc(C#N)c(Nc3ccc(OCc4ccccn4)c(Cl)c3)c2cc1NC(=O)/C=C/CN(C)C [Neratinib] 0.571
N[C@@H]1CCCC[C@H]1N.O=C1[O][Pt][O]C1=O [Oxaliplatin] 0.939
CCN(CC)CCNC(=O)c1c(C)[nH]c(/C=C2\C(=O)Nc3ccc(F)cc32)c1C.O=C(O)C[C@H](O)C(=O)O [Sunitinib Malate] 0.984
CC(=O)O[C@@]12CO[C@@H]1C[C@H](O)[C@@]1(C)C(=O)[C@H](O)C3=C(C)[C@@H](OC(=O)[C@H](O)[C@@H](NC(=O)OC(C)(C)C)c4ccccc4)C[C@@](O)([C@@H](OC(=O)c4ccccc4)[C@H]21)C3(C)C.O.O.O [Docetaxel trihydrate] 0.711
CN(C)C/C=C/C(=O)Nc1cc2c(Nc3ccc(F)c(Cl)c3)ncnc2cc1O[C@H]1CCOC1.O=C(O)/C=C\C(=O)O.O=C(O)/C=C\C(=O)O [Afatinib Dimaleate] 1
CN(C)N=Nc1nc[nH]c1C(N)=O [Dacarbazine] 0.842

Of the compounds above, 2 have fluorine.
probability, active:
CCN(CC)CCNC(=O)c1c(C)[nH]c(/C=C2\C(=O)Nc3ccc(F)cc32)c1C.O=C(O)C[C@H](O)C(=O)O [Sunitinib Malate] 0.984
CN(C)C/C=C/C(=O)Nc1cc2c(Nc3ccc(F)c(Cl)c3)ncnc2cc1O[C@H]1CCOC1.O=C(O)/C=C\C(=O)O.O=C(O)/C=C\C(=O)O [Afatinib Dimaleate] 1

Same assay, conditions: 100 nM; SORL1-/- sub-clone: XE10; 24 h

probability, active:
C=CC(=O)Nc1cc(Nc2nccc(-c3cn(C)c4ccccc34)n2)c(OC)cc1N(C)CCN(C)C [Osimertinib] 0.997
Cc1cc(Nc2ncc(Cl)c(Nc3ccccc3S(=O)(=O)C(C)C)n2)c(OC(C)C)cc1C1CCNCC1 0.514
CC(=O)O[C@@]12CO[C@@H]1C[C@H](O)[C@@]1(C)C(=O)[C@H](O)C3=C(C)[C@@H](OC(=O)[C@H](O)[C@@H](NC(=O)OC(C)(C)C)c4ccccc4)C[C@@](O)([C@@H](OC(=O)c4ccccc4)[C@H]21)C3(C)C [Docetaxel] 0.578
CC(=O)c1c(C)c2cnc(Nc3ccc(N4CCNCC4)cn3)nc2n(C2CCCC2)c1=O.Cl [Palbociclib hydrochloride] 0.637
c1cc(CN2CCCNCCNCCCNCC2)ccc1CN1CCCNCCNCCCNCC1 [Plerixafor] 0.537
Nc1cccc2c1C(=O)N(C1CCC(=O)NC1=O)C2=O (centres undefined) [Pomalidomide] 0.837
Cc1cc2c(cc1S(N)(=O)=O)S(=O)(=O)CCC2 [Meticrane] 0.778

Same assay, conditions: 300 nM; SORL1-/- sub-clone: WB8; 24 h

probability, active:
C=C1/C(=C\C=C2/CCC[C@]3(C)[C@@H]([C@H](C)CCCC(C)(C)O)CC[C@@H]23)C[C@@H](O)C[C@@H]1O [Calcitriol] 0.805
Cc1[nH]c2ccccc2c1CCNCc1ccc(/C=C/C(=O)NO)cc1 [Panobinostat] 0.75
CC(=O)O[C@H]1C(=O)[C@@]2(C)[C@H]([C@H](OC(=O)c3ccccc3)[C@]3(O)C[C@H](OC(=O)[C@H](O)[C@@H](NC(=O)c4ccccc4)c4ccccc4)C(C)=C1C3(C)C)[C@]1(OC(C)=O)CO[C@@H]1C[C@@H]2O [Paclitaxel] 0.649
Cc1cc(/C=C/c2ccc3cc(N(C)C)ccc3[n+]2C)c(C)n1-c1ccccc1.Cc1cc(/C=C/c2ccc3cc(N(C)C)ccc3[n+]2C)c(C)n1-c1ccccc1.O=C([O-])c1cc2ccccc2c(Cc2c(O)c(C(=O)[O-])cc3ccccc23)c1O [Pyrvinium pamoate] 0.533
CCC1=C[C@@H]2CN(C1)Cc1c([nH]c3ccccc13)[C@@](C(=O)OC)(c1cc3c(cc1OC)N(C)[C@H]1[C@@](O)(C(=O)OC)[C@H](OC(C)=O)[C@]4(CC)C=CCN5CC[C@]31[C@@H]54)C2.O=C(O)[C@H](O)[C@@H](O)C(=O)O.O=C(O)[C@H](O)[C@@H](O)C(=O)O [Vinorelbine Tartrate] 0.622

Same assay, conditions: 1000 nM; SORL1-/- sub-clone: WB8; 24 h

probability, active:
O=c1c(-c2ccc(O)cc2)coc2cc(O)cc(O)c12 [Genistein] 0.538
COC1=C(OC)C(=O)C(C/C=C(\C)CC/C=C(\C)CC/C=C(\C)CC/C=C(\C)CC/C=C(\C)CC/C=C(\C)CC/C=C(\C)CC/C=C(\C)CC/C=C(\C)CCC=C(C)C)=C(C)C1=O [Coenzyme Q10] 0.637
CC(=O)c1c(C)c2cnc(Nc3ccc(N4CCNCC4)cn3)nc2n(C2CCCC2)c1=O.Cl [Palbociclib hydrochloride] 0.74
COc1cc2ncnc(Nc3ccc(F)c(Cl)c3)c2cc1NC(=O)/C=C/CN1CCCCC1 [Dacomitinib] 0.527
COC(=O)N[C@@H](C)CNc1nccc(-c2cn(C(C)C)nc2-c2cc(Cl)cc(NS(C)(=O)=O)c2F)n1 [Encorafenib] 0.755
